## Assay results

Data taken from PubChem BioAssay AID504749, deposited by NCATS (2011).

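Malaria parasite (P. falciparum) lines kept in red blood cells; parasite DNA is measured by SYBR Green fluorescence after lysis, 72 h after compound addition. Each compound was titrated across a series from about 0.000037 to 29 µM. The number is the fitted AC50, the concentration giving a half-maximal change in signal; a lower value means higher potency, whether the curve shows a decrease or an increase. Calls follow the curve class and fit quality: every row here is inconclusive, covering signal-raising curves and weak, poorly fitted, partial or highest-dose-only inhibition curves.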

Values are in nM. Every entry below has the call inconclusive. Only part of the assay is shown, chiefly results filed as inconclusive. A potency from a partial, single-point or poor curve is only a rough figure. Some entries filed as inconclusive have a full curve.

Result for O=C1NCN(c2ccccc2)C12CCN(CCCOc1ccc(F)cc1)CC2 [CP335] was potency 15101 nM (inhibitor, single point).
Result for O=C1NCN(c2ccccc2)C12CCN(CCCOc1ccc(F)cc1)CC2 [DFO2036] was potency 12589 nM (inhibitor, single point).
Result for O=C1NCN(c2ccccc2)C12CCN(CCCOc1ccc(F)cc1)CC2 [DIV30] was potency 6746 nM (inhibitor, partial curve).
Result for O=C1NCN(c2ccccc2)C12CCN(CCCOc1ccc(F)cc1)CC2 [PC15] was potency 17782 nM (inhibitor, single point).
Result for O=C1NCN(c2ccccc2)C12CCN(CCCOc1ccc(F)cc1)CC2 [CP238] was potency 8912 nM (inhibitor, single point).
Result for O=C1NCN(c2ccccc2)C12CCN(CCCOc1ccc(F)cc1)CC2 [P94_40] was potency 17782 nM (inhibitor, single point).
Result for O=C1NCN(c2ccccc2)C12CCN(CCCOc1ccc(F)cc1)CC2 [TAB165] was potency 12589 nM (inhibitor, partial curve).
Result for O=C1NCN(c2ccccc2)C12CCN(CCCOc1ccc(F)cc1)CC2 [AA1029] was potency 12589 nM (inhibitor, partial curve).
Result for O=C1NCN(c2ccccc2)C12CCN(CCCOc1ccc(F)cc1)CC2 [DIV17] was potency 9528 nM (inhibitor, partial curve).
Result for CCCCCCCCCCCC(CC1OC(=O)C1CCCCCC)OC(=O)C(CC(C)C)NC=O (stereo not shown) [CP329] was potency 1901 nM (inhibitor, partial curve, poor fit).
Result for CCCCCCCCCCCC(CC1OC(=O)C1CCCCCC)OC(=O)C(CC(C)C)NC=O (stereo not shown) [CP203] was potency 120 nM (inhibitor, full curve, poor fit).
Result for CCCCCCCCCCCC(CC1OC(=O)C1CCCCCC)OC(=O)C(CC(C)C)NC=O (stereo not shown) [CP305] was potency 425.6 nM (inhibitor, full curve).
Result for CCCCCCCCCCCC(CC1OC(=O)C1CCCCCC)OC(=O)C(CC(C)C)NC=O (stereo not shown) [CP268] was potency 425.6 nM (inhibitor, full curve).
Result for CCCCCCCCCCCC(CC1OC(=O)C1CCCCCC)OC(=O)C(CC(C)C)NC=O (stereo not shown) [CP211] was potency 9528 nM (inhibitor, partial curve, poor fit).
Result for CCCCCCCCCCCC(CC1OC(=O)C1CCCCCC)OC(=O)C(CC(C)C)NC=O (stereo not shown) [ATS189] was potency 794.3 nM (inhibitor, full curve).
Result for CCCCCCCCCCCC(CC1OC(=O)C1CCCCCC)OC(=O)C(CC(C)C)NC=O (stereo not shown) [DIV17] was potency 379.3 nM (inhibitor, full curve).
Result for CCCCCCCCCCCC(CC1OC(=O)C1CCCCCC)OC(=O)C(CC(C)C)NC=O (stereo not shown) [CP297] was potency 151 nM (inhibitor, full curve).
Result for CCCCCCCCCCCC(CC1OC(=O)C1CCCCCC)OC(=O)C(CC(C)C)NC=O (stereo not shown) [PAD] was potency 794.3 nM (inhibitor, full curve).
Result for CCCCCCCCCCCC(CC1OC(=O)C1CCCCCC)OC(=O)C(CC(C)C)NC=O (stereo not shown) [CP291] was potency 301.3 nM (inhibitor, full curve).
Result for CCCCCCCCCCCC(CC1OC(=O)C1CCCCCC)OC(=O)C(CC(C)C)NC=O (stereo not shown) [PC26] was potency 952.8 nM (inhibitor, partial curve, poor fit).
Result for CCCCCCCCCCCC(CC1OC(=O)C1CCCCCC)OC(=O)C(CC(C)C)NC=O (stereo not shown) [DIV14] was potency 756.9 nM (inhibitor, full curve).
Result for CCCCCCCCCCCC(CC1OC(=O)C1CCCCCC)OC(=O)C(CC(C)C)NC=O (stereo not shown) [FAB9] was potency 1585 nM (inhibitor, full curve).
Result for CCCCCCCCCCCC(CC1OC(=O)C1CCCCCC)OC(=O)C(CC(C)C)NC=O (stereo not shown) [CP215] was potency 169.4 nM (inhibitor, full curve).
Result for CCCCCCCCCCCC(CC1OC(=O)C1CCCCCC)OC(=O)C(CC(C)C)NC=O (stereo not shown) [GB4] was potency 849.2 nM (inhibitor, full curve).
Result for CCCCCCCCCCCC(CC1OC(=O)C1CCCCCC)OC(=O)C(CC(C)C)NC=O (stereo not shown) [DIV30] was potency 1200 nM (inhibitor, single point).

3 of the entries, repeated:

structure,tested on / at,potency (nM),curve as filed
O=C1NCN(c2ccccc2)C12CCN(CCCOc1ccc(F)cc1)CC2,TAB165,12589,"inhibitor, partial curve"
CCCCCCCCCCCC(CC1OC(=O)C1CCCCCC)OC(=O)C(CC(C)C)NC=O (stereo not shown),DIV30,1200,"inhibitor, single point"
O=C1NCN(c2ccccc2)C12CCN(CCCOc1ccc(F)cc1)CC2,PC15,17782,"inhibitor, single point"